These are yes or no findings as the source states them, for the method shown. Binding seen in cells or lysates may run through a third protein. Some binding calls cover weakened binding; strength is not graded here. Sequences can lack the tags named with a protein.
Columns and labels:
[1] = molecular target: T1, Flag-tagged TRAF2 (human) (UniProt Q12933); experiment: co-IP; 293T cells transfected 24 h with Flag-tagged TRAFs or their truncations and HA-tagged TBK1, HA-tagged IKKε or HA-tagged MAVS; IP anti-Flag, Western blot
T1 sequence: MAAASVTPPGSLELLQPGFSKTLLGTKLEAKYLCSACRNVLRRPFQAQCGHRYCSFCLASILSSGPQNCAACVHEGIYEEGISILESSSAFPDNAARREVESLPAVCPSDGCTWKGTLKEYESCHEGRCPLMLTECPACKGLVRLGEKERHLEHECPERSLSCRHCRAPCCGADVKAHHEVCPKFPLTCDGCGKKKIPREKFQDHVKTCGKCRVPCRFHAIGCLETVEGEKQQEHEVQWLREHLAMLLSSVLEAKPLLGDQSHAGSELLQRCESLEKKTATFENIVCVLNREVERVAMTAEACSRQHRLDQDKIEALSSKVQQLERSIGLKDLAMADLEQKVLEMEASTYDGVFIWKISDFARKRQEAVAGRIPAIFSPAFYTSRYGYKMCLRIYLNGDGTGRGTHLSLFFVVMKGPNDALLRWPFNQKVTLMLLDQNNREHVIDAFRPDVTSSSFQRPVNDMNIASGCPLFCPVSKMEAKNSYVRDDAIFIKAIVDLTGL

Amino acid sequences for entries named in this document (tags omitted).
UniProt Q7Z434: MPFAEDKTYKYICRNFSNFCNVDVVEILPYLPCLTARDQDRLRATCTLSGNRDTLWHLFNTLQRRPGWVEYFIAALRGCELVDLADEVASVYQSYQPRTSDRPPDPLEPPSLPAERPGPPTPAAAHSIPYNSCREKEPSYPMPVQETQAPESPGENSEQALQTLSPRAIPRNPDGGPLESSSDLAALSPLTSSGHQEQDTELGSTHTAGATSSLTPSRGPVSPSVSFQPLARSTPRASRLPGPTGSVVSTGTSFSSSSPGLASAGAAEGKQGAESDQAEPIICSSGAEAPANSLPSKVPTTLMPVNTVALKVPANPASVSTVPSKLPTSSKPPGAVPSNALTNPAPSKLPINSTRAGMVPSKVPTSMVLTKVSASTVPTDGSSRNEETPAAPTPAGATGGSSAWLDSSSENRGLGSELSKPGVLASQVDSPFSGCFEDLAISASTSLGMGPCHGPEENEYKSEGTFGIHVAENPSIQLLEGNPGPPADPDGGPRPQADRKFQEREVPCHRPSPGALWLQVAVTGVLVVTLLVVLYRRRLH

[2] = molecular target: T2, Flag-tagged TRAF2-d1 (lacking amino acids 1–233) (human) (UniProt Q12933); experiment: as above
T2 sequence: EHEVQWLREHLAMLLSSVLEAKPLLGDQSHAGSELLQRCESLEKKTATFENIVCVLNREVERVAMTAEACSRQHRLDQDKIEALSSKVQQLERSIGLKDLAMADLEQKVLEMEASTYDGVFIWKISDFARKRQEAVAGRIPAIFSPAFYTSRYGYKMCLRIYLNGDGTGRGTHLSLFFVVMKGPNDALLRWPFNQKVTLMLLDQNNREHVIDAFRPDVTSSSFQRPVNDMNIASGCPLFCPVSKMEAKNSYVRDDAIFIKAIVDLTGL

[3] = molecular target: T3, Flag-tagged TRAF2-dC (lacking amino acids 299–348) (human) (UniProt Q12933); experiment: as above
T3 sequence: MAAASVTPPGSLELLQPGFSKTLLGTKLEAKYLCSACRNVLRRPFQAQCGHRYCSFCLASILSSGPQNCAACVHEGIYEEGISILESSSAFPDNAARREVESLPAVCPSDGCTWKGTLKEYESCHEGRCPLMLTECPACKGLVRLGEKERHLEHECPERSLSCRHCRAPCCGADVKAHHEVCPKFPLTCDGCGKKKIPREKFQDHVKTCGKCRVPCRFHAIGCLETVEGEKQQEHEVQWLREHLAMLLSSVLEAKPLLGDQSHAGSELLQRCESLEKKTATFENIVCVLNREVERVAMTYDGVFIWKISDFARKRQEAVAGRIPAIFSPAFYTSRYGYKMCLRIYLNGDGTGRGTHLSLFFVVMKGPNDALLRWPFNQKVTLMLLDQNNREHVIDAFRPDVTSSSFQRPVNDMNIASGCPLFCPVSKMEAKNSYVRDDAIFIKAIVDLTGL

[4] = molecular target: T4, Flag-tagged TRAF2-dR (lacking amino acids 34–73) (human) (UniProt Q12933); experiment: as above
T4 sequence: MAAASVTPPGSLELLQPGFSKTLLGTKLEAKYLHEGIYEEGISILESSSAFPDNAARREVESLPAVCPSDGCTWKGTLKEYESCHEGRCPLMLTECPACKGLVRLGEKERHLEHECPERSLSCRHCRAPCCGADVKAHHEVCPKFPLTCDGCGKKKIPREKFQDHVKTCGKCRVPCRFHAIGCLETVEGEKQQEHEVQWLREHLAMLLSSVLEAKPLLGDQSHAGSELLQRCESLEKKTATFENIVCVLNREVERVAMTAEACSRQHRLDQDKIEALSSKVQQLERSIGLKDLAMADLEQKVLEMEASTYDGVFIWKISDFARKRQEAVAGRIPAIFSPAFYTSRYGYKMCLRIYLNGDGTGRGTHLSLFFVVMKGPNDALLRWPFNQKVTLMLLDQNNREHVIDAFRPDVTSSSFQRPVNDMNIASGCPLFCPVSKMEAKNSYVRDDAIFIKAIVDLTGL

[5] = molecular target: T5, Flag-tagged TRAF3-d1 (lacking amino acids 1–249) (human) (UniProt Q13114); experiment: as above
T5 sequence: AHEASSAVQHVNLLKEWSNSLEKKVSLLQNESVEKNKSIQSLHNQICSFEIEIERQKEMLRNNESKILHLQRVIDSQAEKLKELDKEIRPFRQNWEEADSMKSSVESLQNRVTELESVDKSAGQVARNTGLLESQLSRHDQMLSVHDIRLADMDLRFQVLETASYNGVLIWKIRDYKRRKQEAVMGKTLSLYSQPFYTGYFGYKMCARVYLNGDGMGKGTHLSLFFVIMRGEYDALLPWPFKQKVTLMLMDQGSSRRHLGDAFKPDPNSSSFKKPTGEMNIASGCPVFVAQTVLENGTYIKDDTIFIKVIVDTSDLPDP

[6] = molecular target: T6, Flag-tagged TRAF3-dC (lacking amino acids 267–338) (human) (UniProt Q13114); experiment: as above
T6 sequence: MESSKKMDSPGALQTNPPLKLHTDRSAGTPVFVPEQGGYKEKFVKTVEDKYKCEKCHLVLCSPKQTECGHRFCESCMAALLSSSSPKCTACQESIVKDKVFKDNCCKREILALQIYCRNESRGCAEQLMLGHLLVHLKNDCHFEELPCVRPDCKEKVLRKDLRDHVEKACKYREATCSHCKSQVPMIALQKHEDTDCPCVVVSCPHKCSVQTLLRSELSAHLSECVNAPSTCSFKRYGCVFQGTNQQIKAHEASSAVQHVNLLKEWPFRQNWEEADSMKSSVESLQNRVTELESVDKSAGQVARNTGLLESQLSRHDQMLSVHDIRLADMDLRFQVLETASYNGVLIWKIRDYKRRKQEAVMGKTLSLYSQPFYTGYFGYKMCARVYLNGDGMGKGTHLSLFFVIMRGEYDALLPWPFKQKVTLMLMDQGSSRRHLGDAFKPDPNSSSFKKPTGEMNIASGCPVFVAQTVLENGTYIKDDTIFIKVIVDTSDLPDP

[7] = molecular target: T7, Flag-tagged TRAF3-dR (lacking amino acids 68–77) (human) (UniProt Q13114); experiment: as above
T7 sequence: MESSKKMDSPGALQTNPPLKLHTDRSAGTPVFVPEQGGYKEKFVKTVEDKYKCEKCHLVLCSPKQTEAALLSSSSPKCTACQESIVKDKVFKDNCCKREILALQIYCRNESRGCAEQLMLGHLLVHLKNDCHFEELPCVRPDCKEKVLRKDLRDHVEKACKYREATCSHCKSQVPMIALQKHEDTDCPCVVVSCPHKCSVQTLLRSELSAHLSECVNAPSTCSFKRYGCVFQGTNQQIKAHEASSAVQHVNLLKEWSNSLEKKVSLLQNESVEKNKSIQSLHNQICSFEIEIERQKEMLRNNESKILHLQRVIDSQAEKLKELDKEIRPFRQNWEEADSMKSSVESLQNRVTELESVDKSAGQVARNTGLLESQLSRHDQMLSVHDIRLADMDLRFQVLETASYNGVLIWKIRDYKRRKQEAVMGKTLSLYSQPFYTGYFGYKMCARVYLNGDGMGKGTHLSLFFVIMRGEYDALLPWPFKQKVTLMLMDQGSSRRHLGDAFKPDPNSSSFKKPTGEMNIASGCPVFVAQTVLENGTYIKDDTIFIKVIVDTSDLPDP

[8] = molecular target: T8, Flag-tagged TRAF6-d1 (lacking amino acids 1–259) (human) (UniProt Q9Y4K3); experiment: as above
T8 sequence: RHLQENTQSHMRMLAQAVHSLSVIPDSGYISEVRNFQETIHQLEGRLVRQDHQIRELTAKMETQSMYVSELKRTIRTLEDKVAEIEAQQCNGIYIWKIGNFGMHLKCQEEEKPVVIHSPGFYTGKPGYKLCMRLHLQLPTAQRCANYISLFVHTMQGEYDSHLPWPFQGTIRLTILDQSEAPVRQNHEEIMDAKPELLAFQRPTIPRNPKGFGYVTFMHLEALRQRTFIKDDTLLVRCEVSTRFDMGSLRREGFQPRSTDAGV

[9] = molecular target: T9, Flag-tagged TRAF6-dC (lacking amino acids 288–348) (human) (UniProt Q9Y4K3); experiment: as above
T9 sequence: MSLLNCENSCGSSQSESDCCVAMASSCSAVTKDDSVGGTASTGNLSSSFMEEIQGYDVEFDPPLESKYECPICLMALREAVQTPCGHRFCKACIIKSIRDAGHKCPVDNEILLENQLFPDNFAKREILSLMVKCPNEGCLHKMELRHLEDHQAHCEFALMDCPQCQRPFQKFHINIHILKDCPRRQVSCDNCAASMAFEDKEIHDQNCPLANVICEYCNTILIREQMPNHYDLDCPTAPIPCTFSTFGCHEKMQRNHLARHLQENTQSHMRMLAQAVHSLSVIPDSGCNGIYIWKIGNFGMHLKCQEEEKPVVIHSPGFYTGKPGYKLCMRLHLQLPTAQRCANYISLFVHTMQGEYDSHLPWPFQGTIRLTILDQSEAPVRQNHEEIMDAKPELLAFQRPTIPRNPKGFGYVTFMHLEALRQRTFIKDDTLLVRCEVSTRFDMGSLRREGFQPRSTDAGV

[10] = molecular target: T10, Flag-tagged TRAF6-dR (lacking amino acids 70–109) (human) (UniProt Q9Y4K3); experiment: as above
T10 sequence: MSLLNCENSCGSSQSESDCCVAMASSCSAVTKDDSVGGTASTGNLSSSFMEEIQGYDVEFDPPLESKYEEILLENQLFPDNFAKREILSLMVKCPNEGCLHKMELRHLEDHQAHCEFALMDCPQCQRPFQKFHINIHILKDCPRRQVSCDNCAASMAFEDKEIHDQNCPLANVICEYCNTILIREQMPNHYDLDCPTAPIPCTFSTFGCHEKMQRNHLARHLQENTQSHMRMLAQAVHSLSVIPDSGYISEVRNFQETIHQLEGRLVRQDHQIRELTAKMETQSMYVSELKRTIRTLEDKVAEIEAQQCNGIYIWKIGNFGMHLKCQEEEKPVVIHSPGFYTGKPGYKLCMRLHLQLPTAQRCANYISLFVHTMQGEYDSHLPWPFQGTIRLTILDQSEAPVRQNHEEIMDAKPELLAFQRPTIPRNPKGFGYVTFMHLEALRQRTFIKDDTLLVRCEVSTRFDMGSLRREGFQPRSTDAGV

[11] = molecular target: T1, Flag-tagged TRAF2 (human); experiment: co-IP; TRAFs-deficient 293T cells reconstituted with TRAF2, 3, 5 or 6, SeV-infected for the indicated times; lysates immunoprecipitated with anti-Flag antibody, Western blot

Measured: binding

HA-tagged MAVS (transfected in 293T) (from UniProt Q7Z434 1-540)
not listed: [11]
binds: all other assays above

Mitochondrial antiviral-signaling protein (MAVS), endogenous (from UniProt Q7Z434 1-540)
binds: [11]

— article PMC5699845
